PubChem BioAssay AID1224830 – NIAID – 2016
This is one part, drawn at random, of about 18,000 reagents. About 2,900 of them (16%) count as active. 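Calls are made per well; low scores hint the gene aids the LPS response, high scores that it dampens it.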 Repeated entries: four replicate wells of each siRNA pool.

Test: 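Host factors that control LPS-induced TNF expression in human macrophages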 (primary screen)
Cell system: human THP-1 monocytic leukaemia cells, TNF dual-luciferase reporter clone, PMA-differentiated to macrophage-like cells
Reagents: siRNA pool against human genes, 50 nM
Duration: LPS for 4 h, given about 3 days after siRNA transfection
Challenge: bacterial LPS (TLR4 ligand), 10 ng/ml
Measurement: 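Ratio of firefly to renilla light, scaled to the plate median and expressed as a robust z-score per replicate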
Direction: TNF reporter robust z-score: higher = stronger TNF reporter response to LPS
Active means: 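Each well counts as active if its z-score is over 2.8 or under -1.5; controls are left without a call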

TNF reporter robust z-score | outcome | gene symbol | PubChem SID
0.12 | inactive | HLA-DRB3 (major histocompatibility complex, class II, DR beta 3) | SID315449215
1.27 | inactive | HLA-DRB3 (major histocompatibility complex, class II, DR beta 3) | SID315449215
-0.02 | inactive | HLA-DRB3 (major histocompatibility complex, class II, DR beta 3) | SID315449215
-0.59 | inactive | HLA-DRB3 (major histocompatibility complex, class II, DR beta 3) | SID315449215
1.64 | inactive | SLPI (secretory leukocyte peptidase inhibitor) | SID315451521
1.91 | inactive | SLPI (secretory leukocyte peptidase inhibitor) | SID315451521
0.48 | inactive | SLPI (secretory leukocyte peptidase inhibitor) | SID315451521
2.71 | inactive | SLPI (secretory leukocyte peptidase inhibitor) | SID315451521
-0.74 | inactive | ORAI1 (ORAI calcium release-activated calcium modulator 1) | SID315460540
-1.17 | inactive | ORAI1 (ORAI calcium release-activated calcium modulator 1) | SID315460540
-0.86 | inactive | ORAI1 (ORAI calcium release-activated calcium modulator 1) | SID315460540
0.14 | inactive | ORAI1 (ORAI calcium release-activated calcium modulator 1) | SID315460540
0.01 | inactive | HP (haptoglobin) | SID315449303
0.93 | inactive | HP (haptoglobin) | SID315449303
-1.22 | inactive | HP (haptoglobin) | SID315449303
-1.38 | inactive | HP (haptoglobin) | SID315449303
1.58 | inactive | SLC24A2 | SID315455451
2.8 | active | SLC24A2 | SID315455451
2.25 | inactive | SLC24A2 | SID315455451
0.88 | inactive | SLC24A2 | SID315455451
-1.11 | inactive | ZNF71 (zinc finger protein 71) | SID315458632
-1.06 | inactive | ZNF71 (zinc finger protein 71) | SID315458632
-1.26 | inactive | ZNF71 (zinc finger protein 71) | SID315458632
-0.58 | inactive | ZNF71 (zinc finger protein 71) | SID315458632
-1.38 | inactive | SPN (sialophorin) | SID315451606
-0.6 | inactive | SPN (sialophorin) | SID315451606
-0.5 | inactive | SPN (sialophorin) | SID315451606
-0.22 | inactive | SPN (sialophorin) | SID315451606
-1.03 | inactive | ITGAM (integrin subunit alpha M) | SID315449553
-0.87 | inactive | ITGAM (integrin subunit alpha M) | SID315449553
-1.27 | inactive | ITGAM (integrin subunit alpha M) | SID315449553
-0.85 | inactive | ITGAM (integrin subunit alpha M) | SID315449553
-0.37 | inactive | OR10K1 (olfactory receptor family 10 subfamily K member 1) | SID315464675
0.55 | inactive | OR10K1 (olfactory receptor family 10 subfamily K member 1) | SID315464675
0.46 | inactive | OR10K1 (olfactory receptor family 10 subfamily K member 1) | SID315464675
1.23 | inactive | OR10K1 (olfactory receptor family 10 subfamily K member 1) | SID315464675
0.6 | inactive | ACADL (acyl-CoA dehydrogenase long chain) | SID315447140
0.82 | inactive | ACADL (acyl-CoA dehydrogenase long chain) | SID315447140
0.72 | inactive | ACADL (acyl-CoA dehydrogenase long chain) | SID315447140
1.02 | inactive | ACADL (acyl-CoA dehydrogenase long chain) | SID315447140
1.47 | inactive | CRTAC1 (cartilage acidic protein 1) | SID315457420
-0.99 | inactive | CRTAC1 (cartilage acidic protein 1) | SID315457420
0.51 | inactive | CRTAC1 (cartilage acidic protein 1) | SID315457420
0.07 | inactive | CRTAC1 (cartilage acidic protein 1) | SID315457420
-0.03 | inactive | TTLL7 (tubulin tyrosine ligase like 7) | SID315459426
0.48 | inactive | TTLL7 (tubulin tyrosine ligase like 7) | SID315459426
1.56 | inactive | TTLL7 (tubulin tyrosine ligase like 7) | SID315459426
2.5 | inactive | TTLL7 (tubulin tyrosine ligase like 7) | SID315459426
-0.47 | inactive | ADGRG3 (adhesion G protein-coupled receptor G3) | SID315463342
-0.66 | inactive | ADGRG3 (adhesion G protein-coupled receptor G3) | SID315463342
-0.72 | inactive | ADGRG3 (adhesion G protein-coupled receptor G3) | SID315463342
-1.07 | inactive | FIGN (fidgetin, microtubule severing factor) | SID315457434
-1.03 | inactive | FIGN (fidgetin, microtubule severing factor) | SID315457434
-0.62 | inactive | FIGN (fidgetin, microtubule severing factor) | SID315457434
-0.78 | inactive | FIGN (fidgetin, microtubule severing factor) | SID315457434
0.79 | inactive | TAGLN (transgelin) | SID315451741
1.12 | inactive | TAGLN (transgelin) | SID315451741
-0.12 | inactive | TAGLN (transgelin) | SID315451741
-0.28 | inactive | TAGLN (transgelin) | SID315451741
-1.66 | active | RPP40 (ribonuclease P/MRP subunit p40) | SID315454370
-0.84 | inactive | RPP40 (ribonuclease P/MRP subunit p40) | SID315454370
-0.95 | inactive | RPP40 (ribonuclease P/MRP subunit p40) | SID315454370
-0.47 | inactive | RPP40 (ribonuclease P/MRP subunit p40) | SID315454370
0.58 | inactive | ILDR2 (immunoglobulin like domain containing receptor 2) | SID315464440
1.29 | inactive | ILDR2 (immunoglobulin like domain containing receptor 2) | SID315464440
0.29 | inactive | ILDR2 (immunoglobulin like domain containing receptor 2) | SID315464440
-0.22 | inactive | ILDR2 (immunoglobulin like domain containing receptor 2) | SID315464440
-1.38 | inactive | TTC19 (tetratricopeptide repeat domain 19) | SID315457253
-1.58 | active | TTC19 (tetratricopeptide repeat domain 19) | SID315457253
-1.32 | inactive | TTC19 (tetratricopeptide repeat domain 19) | SID315457253
-1.13 | inactive | TTC19 (tetratricopeptide repeat domain 19) | SID315457253
0.74 | inactive | NPM2 (nucleophosmin/nucleoplasmin 2) | SID315454030
1.21 | inactive | NPM2 (nucleophosmin/nucleoplasmin 2) | SID315454030
1.68 | inactive | NPM2 (nucleophosmin/nucleoplasmin 2) | SID315454030
2.07 | inactive | NPM2 (nucleophosmin/nucleoplasmin 2) | SID315454030
-1.11 | inactive | CHRNA1 (cholinergic receptor nicotinic alpha 1 subunit) | SID315447924
0.2 | inactive | CHRNA1 (cholinergic receptor nicotinic alpha 1 subunit) | SID315447924
-0.82 | inactive | CHRNA1 (cholinergic receptor nicotinic alpha 1 subunit) | SID315447924
2.65 | inactive | CHRNA1 (cholinergic receptor nicotinic alpha 1 subunit) | SID315447924
0.91 | inactive | ANGPTL3 (angiopoietin like 3) | SID315456033
1.34 | inactive | ANGPTL3 (angiopoietin like 3) | SID315456033
1.08 | inactive | ANGPTL3 (angiopoietin like 3) | SID315456033
0.37 | inactive | ANGPTL3 (angiopoietin like 3) | SID315456033
-0.89 | inactive | FBXW9 (F-box and WD repeat domain containing 9) | SID315460274
5.18 | active | FBXW9 (F-box and WD repeat domain containing 9) | SID315460274
-0.2 | inactive | FBXW9 (F-box and WD repeat domain containing 9) | SID315460274
2.13 | inactive | FBXW9 (F-box and WD repeat domain containing 9) | SID315460274
-0.37 | inactive | DBN1 (drebrin 1) | SID315448253
-0.45 | inactive | DBN1 (drebrin 1) | SID315448253
-0.8 | inactive | DBN1 (drebrin 1) | SID315448253
-0.35 | inactive | DBN1 (drebrin 1) | SID315448253
-0.66 | inactive | MSMB (microseminoprotein beta) | SID315450044
-0.34 | inactive | MSMB (microseminoprotein beta) | SID315450044
0.05 | inactive | MSMB (microseminoprotein beta) | SID315450044
0.38 | inactive | MSMB (microseminoprotein beta) | SID315450044
0.83 | inactive | ACYP1 (acylphosphatase 1) | SID315447177
0.72 | inactive | ACYP1 (acylphosphatase 1) | SID315447177
-0.09 | inactive | ACYP1 (acylphosphatase 1) | SID315447177
0.67 | inactive | ACYP1 (acylphosphatase 1) | SID315447177
-0.03 | inactive | CLEC16A (C-type lectin domain containing 16A) | SID315455126
0.31 | inactive | CLEC16A (C-type lectin domain containing 16A) | SID315455126
0.85 | inactive | CLEC16A (C-type lectin domain containing 16A) | SID315455126
1.05 | inactive | CLEC16A (C-type lectin domain containing 16A) | SID315455126
-0.4 | inactive | ACTN3 (actinin alpha 3) | SID315447170
-0.89 | inactive | ACTN3 (actinin alpha 3) | SID315447170
-0.79 | inactive | ACTN3 (actinin alpha 3) | SID315447170
-0.61 | inactive | ACTN3 (actinin alpha 3) | SID315447170
0.5 | inactive | BRDT (bromodomain testis associated) | SID315447585
0.87 | inactive | BRDT (bromodomain testis associated) | SID315447585
3.45 | active | BRDT (bromodomain testis associated) | SID315447585
2.52 | inactive | BRDT (bromodomain testis associated) | SID315447585
-0.46 | inactive | C1S (complement C1s) | SID315447610
-0.03 | inactive | C1S (complement C1s) | SID315447610
0.18 | inactive | C1S (complement C1s) | SID315447610
0.17 | inactive | C1S (complement C1s) | SID315447610
0.64 | inactive | SGCB (sarcoglycan beta) | SID315451399
1.83 | inactive | SGCB (sarcoglycan beta) | SID315451399
0.88 | inactive | SGCB (sarcoglycan beta) | SID315451399
0.73 | inactive | SGCB (sarcoglycan beta) | SID315451399
3 | active | FBXL16 (F-box and leucine rich repeat protein 16) | SID315462276
5.69 | active | FBXL16 (F-box and leucine rich repeat protein 16) | SID315462276
3.17 | active | FBXL16 (F-box and leucine rich repeat protein 16) | SID315462276
2.32 | inactive | FBXL16 (F-box and leucine rich repeat protein 16) | SID315462276
-0.51 | inactive | ADAMTS1 (ADAM metallopeptidase with thrombospondin type 1 motif 1) | SID315453342
0.74 | inactive | ADAMTS1 (ADAM metallopeptidase with thrombospondin type 1 motif 1) | SID315453342
0.9 | inactive | ADAMTS1 (ADAM metallopeptidase with thrombospondin type 1 motif 1) | SID315453342
-0.52 | inactive | ADAMTS1 (ADAM metallopeptidase with thrombospondin type 1 motif 1) | SID315453342
1.43 | inactive | BUD13 (BUD13 spliceosome associated protein) | SID315460508
0.83 | inactive | BUD13 (BUD13 spliceosome associated protein) | SID315460508
-0.24 | inactive | BUD13 (BUD13 spliceosome associated protein) | SID315460508
-0.01 | inactive | BUD13 (BUD13 spliceosome associated protein) | SID315460508
0.07 | inactive | PANK3 (pantothenate kinase 3) | SID315459351
0.5 | inactive | PANK3 (pantothenate kinase 3) | SID315459351
0.72 | inactive | PANK3 (pantothenate kinase 3) | SID315459351
0.22 | inactive | LILRA2 (leukocyte immunoglobulin like receptor A2) | SID315454546
0.17 | inactive | LILRA2 (leukocyte immunoglobulin like receptor A2) | SID315454546
0.08 | inactive | LILRA2 (leukocyte immunoglobulin like receptor A2) | SID315454546
22.1 | active | PHTF1 (putative homeodomain transcription factor 1) | SID315454331
1.19 | inactive | PHTF1 (putative homeodomain transcription factor 1) | SID315454331
-0.47 | inactive | PHTF1 (putative homeodomain transcription factor 1) | SID315454331
0.79 | inactive | PHTF1 (putative homeodomain transcription factor 1) | SID315454331
